# Assay results: patent US20220098591
# Amino acid sequences for entries named in this document (tags omitted). Chains listed by the source or under a name are the forms on record and can include a tag or linker.
# UniProt P15692, other isoform, or with tags, fused parts or gaps: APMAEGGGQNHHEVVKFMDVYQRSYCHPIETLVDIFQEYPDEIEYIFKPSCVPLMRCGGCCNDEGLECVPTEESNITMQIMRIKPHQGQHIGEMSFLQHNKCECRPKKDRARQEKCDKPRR
# For part of these data: No signal at the amounts used counts as a negative. The comparison behind a weaker result is the experiment's own reference, which may not be listed here. The exact form of at least one protein or probe is not confirmed. For part of these data: The direction of at least one scale is not stated here.
# Experiments:
# [1] = biological target: VEGF-A121 (Homo sapiens) (UniProt P15692); experiment: activity in cells; details: 2'-F G, 2'-OMe A,C,U, 5' C6NH2, 3' idT, purified recombinant protein, dose not given here
# [2] = biological target: VEGF-A121 (Homo sapiens) (UniProt P15692); experiment: competition with a labelled probe; details: 5' C6NH2, 3' idT, purified recombinant protein
# [3] = all G 2'-F, A,C,U 2'-OMe, variant of Aptamer 26
# [4] = 2'-F G except 2'-OMe G at 22 (Aptamer 141 numbering), 2'-OMe A,C,U, SP3 spacer between parts
# [5] = 2'-F G except 2'-OMe G at 6,22,39,42 (Aptamer 141 numbering), 2'-OMe A,C,U, SP3 spacer between parts
# [6] = 2'-F G except 2'-OMe G at 6,39,42 (Aptamer 141 numbering), 2'-OMe A,C,U, SP3 spacer between parts
sequence,measurement,setting,value
AGGCCGCCUCCGCGCGGAGGGUUUCAUUAUCCCGUUUGGCGGCUU [Aptamer 58],functional effect of the aptamer (fold worse than Aptamer 26),"[1]; SP3 spacer at position 20 between parts, KDR phosphorylation, VEGF-A isoform not stated for this column",> 100
AGGCCGCCUCGCGCGGAGGGGUUUCAUUAUCCCGUUUGGCGGCUU [Aptamer 48],functional effect of the aptamer (fold worse than Aptamer 26),"[1]; SP3 spacer (1,3-propanediol) at position 10 between parts, KDR phosphorylation, VEGF-A isoform not stated for this column",> 100
UAGGCCGCCUCCGCGCGGGGGGGUUUCAUUAUCCCGUUUGGCGGCUUU [Aptamer 27],functional effect of the aptamer,[1]; KDR phosphorylation in HEK293-KDR,not active
AGGCCGCCUCCGCGCGGAGGGGUUUCAUUAUCCGUUUGGCGGCUU [Aptamer 70],functional effect of the aptamer (fold worse than Aptamer 26),"[1]; SP3 spacer at position 32 between parts, KDR phosphorylation, VEGF-A isoform not stated for this column",> 100
AGGCCGCCUCCGCGCGGAGGGGUUUCAUUAUCCCGUUGGCGGCUU [Aptamer 75],functional effect of the aptamer,"[1]; SP3 spacer at position 37 between parts, KDR phosphorylation, VEGF-A isoform not stated for this column",less active
AGGCCGCCUCCGCGCGGAGGGUUUCAUUAUCCCGUUUGGCGGCUU [Aptamer 60],functional effect of the aptamer (fold worse than Aptamer 26),"[1]; SP3 spacer at position 22 between parts, KDR phosphorylation, VEGF-A isoform not stated for this column",> 100
AGGCCGCCUCCGCGCGGAGGGUUUCAUUAUCCCGUUUGGCGGCUU [Aptamer 57],functional effect of the aptamer (fold worse than Aptamer 26),"[1]; SP3 spacer at position 19 between parts, KDR phosphorylation, VEGF-A isoform not stated for this column",> 100
AGGCCGCCUCCGCGCGGAGGGGUUUCAUUAUCCCGGUUGGCGGCUU [Aptamer 167],binding result,[2]; [3],binds more weakly
AGGCCGCCUCCGCGCGGAGGGGUUUCAUUAUCCCGUCUGGCGGCUU [Aptamer 169],binding result,[2]; [3],binds more weakly
AGGCCGCCUACGCGCGUAGGGGUUUCAUUAUCCCGUUUGGCGGCUU [Aptamer 175],binding result,[2]; [3],binds more weakly
UAGGCCGCCUCCGCGCGGUGGGGUUUCAUUAUCCCGUUUGGCGGCUUU [Aptamer 28],binding result,[2]; [3],binds more weakly
GACCCGCGCGGAGGGGUUUCAUUAUCCCGUUUGUC [Aptamer 241],binding result,"[2]; 2'-F G except 2'-OMe G at 6,22,39 (Aptamer 141 numbering), 2'-OMe A,C,U, SP3 spacer between parts",binds
GACCCGCGCGGAGGGGUUUCAUUAUCCCGUUUGUC [Aptamer 236],binding result,[2]; [4],binds
CCCGCGCGGAGGGGUUUCAUUAUCCCGUUUG [Aptamer 279],binding signal (fold worse than Aptamer 141),[2]; [4],> 100
CGACCCGCGCGGAGGGGUUUCAUAACCCCGUUUGUCG [Aptamer 291],binding result,[2]; [5],binds
AGGCCGCCUCGGCGCCGAGGGGUUUCAUUAUCCCGUUUGGCGGCUU [Aptamer 177],binding result,[2]; [3],binds more weakly
GACCCGCGCGGAGGGGUUUCAUUAUCCCGUUUGUC [Aptamer 238],binding result,"[2]; 2'-F G except 2'-OMe G at 6,22 (Aptamer 141 numbering), 2'-OMe A,C,U, SP3 spacer between parts",binds
CGACCCGCGCGGAGGGGUUUCAUUAUCCCGUUUGUCG [Aptamer 228],binding result,"[2]; 2'-F G except 2'-OMe G at 6,42 (Aptamer 141 numbering), 2'-OMe A,C,U, SP3 spacer between parts",binds
CGACCCGCGCGGAGGGAUUUCAUUAUCCCGUUUGUCG [Aptamer 282],binding result,[2]; [6],binds
GCCGACCCGCGCGGAGGGGUUUCAUUAUCCCGUUUGUCGGC [Aptamer 217],binding result,"[2]; 2'-F G except 2'-OMe G at 3,6,22,42,43 (Aptamer 141 numbering), 2'-OMe A,C,U, SP3 spacer between parts",binds
CGACCCGCGCGGAGGGGUUUCAUUAUCCCGUUUGUCG [Aptamer 232],binding result,[2]; [6],binds
CGACCCGCGCGGAGGGGUUUCAUUAUCCCGUUUGUCG [Aptamer 231],binding result,"[2]; 2'-F G except 2'-OMe G at 6,22,42 (Aptamer 141 numbering), 2'-OMe A,C,U, SP3 spacer between parts",binds
CGACCCGCGCGGAGGGGUUUCAUUAUCCCGUUUGUCG [Aptamer 300],binding result,"[2]; 2'-F G except 2'-OMe G at 6,22,39,42 (Aptamer 141 numbering), 2'-OMe A,C,U, SP9 spacer (triethyleneglycol) between parts",binds more weakly
CGACCCGCGCGGAGGGGUUACAUUAUCCCGUUUGUCG [Aptamer 284],binding result,[2]; [5],binds
AGGCCGCCCCCGCGCGGAGGGGUUUCAUUAUCCCGUUUGGCGGCUU [Aptamer 147],binding result,[2]; [3],binds more weakly
CGACCCGCGCGGAGGGGUUUCAUUAUCCCGUUUGUCG [Aptamer 299],binding result,"[2]; 2'-F G except 2'-OMe G at 6,22,39,42 (Aptamer 141 numbering), 2'-OMe A,C,U, SP6 spacer (1,6-hexanediol) between parts",binds more weakly
AGGCCGACCCGCGCGGAGGGGUUUCAUUAUCCCGUUUGUCGGCUU [Aptamer 192],binding result,"[2]; 2'-F G except 2'-OMe G at 17, 2'-OMe A,C,U, SP3 spacer at 9 between parts",binds more weakly
CGACCCGCGCGGAGGGGUUUCAUUACCCCGUUUGUCG [Aptamer 286],binding result,[2]; [5],binds
CGACCAGCGCUGAGGGGUUUCAUUAUCCCGUUUGUCG [Aptamer 295],binding signal (fold worse than Aptamer 141),"[2]; 2'-F G except 2'-OMe G at 6,12,22,39,42 (Aptamer 141 numbering), 2'-OMe A,C,U, SP3 spacer between parts",12
CCGACCCGCGCGGAGGGGUUUCAUUAUCCCGUUUGUCGGC [Aptamer 223],binding result,"[2]; 2'-F G except 2'-OMe G at 39,42,43 (Aptamer 141 numbering), 2'-OMe A,C,U, SP3 spacer between parts",binds
AGGCCGACCCGCGCGGAGGGGUUUCAUUAUCCCGUUUGUCGGCUU [Aptamer 193],binding signal (fold worse IC50 vs Aptamer 141),"[2]; G 2'-F except G19 2'-OMe, A,C,U 2'-OMe, Sp3 joins the two parts, variant of Aptamer 141",> 100
AGGCCGUUCCGCGCGGAGGGGUUUCAUUAUCCCGUUUAACGGCUU [Aptamer 140],binding result,"[2]; all G 2'-F, A,C,U 2'-OMe, Sp3 joins the two parts, variant of Aptamer 26",binds more weakly
AGGCCGACCCGCGCGGAGGGGUUUCAUUAUCCCGUUUGUCGGCUU [Aptamer 190],binding result,"[2]; G 2'-F except G14 2'-OMe, A,C,U 2'-OMe, Sp3 joins the two parts, variant of Aptamer 141",binds more weakly
GCCGACCCGCGCGGAGGGGUUUCAUUAUCCCGUUUGUCGGC [Aptamer 219],binding result,"[2]; 2'-F G except 2'-OMe G at 3,22,39,42,43 (Aptamer 141 numbering), 2'-OMe A,C,U, SP3 spacer between parts",binds
AGGCCGCCUCCGCGCGGAGGGGUUUCAUUAUCCCGUUCGGCGGCUU [Aptamer 172],binding result,[2]; [3],binds more weakly
AGGCCGCCUCUGCGCAGAGGGGUUUCAUUAUCCCGUUUGGCGGCUU [Aptamer 179],binding result,[2]; [3],binds more weakly
CGACCCGCGCGGAGGGAUUUCAUAAUCCCGUUUGUCG [Aptamer 289],binding result,[2]; [6],binds
GACCCGCGCGGAGGGGUUUCAUUAUCCCGUUUGUC [Aptamer 239],binding result,"[2]; 2'-F G except 2'-OMe G at 6,39 (Aptamer 141 numbering), 2'-OMe A,C,U, SP3 spacer between parts",binds
CGACCCGCGCGGAGGGGUUUCAUUAUCCCGUUUGUCG [Aptamer 230],binding result,"[2]; 2'-F G except 2'-OMe G at 39,42 (Aptamer 141 numbering), 2'-OMe A,C,U, SP3 spacer between parts",binds
AGGCCGCGUCCGCGCGGAGGGGUUUCAUUAUCCCGUUUCGCGGCUU [Aptamer 121],binding result,[2]; [3],binds more weakly
CGACCCGCGCGGAGGGGUAUCAUUAUCCCGUUUGUCG [Aptamer 283],binding result,[2]; [5],binds
ACCCGCGCGGAGGGGUUUCAUUAUCCCGUUUGU [Aptamer 278],binding signal (fold worse than Aptamer 141),"[2]; 2'-F G except 2'-OMe G at 22,39 (Aptamer 141 numbering), 2'-OMe A,C,U, SP3 spacer between parts",> 100
AGGCCGACCCGCGCGGAGGGGUUUCAUUAUCCCGUUUGUCGGCUU [Aptamer 194],binding signal (fold worse than Aptamer 141),"[2]; 2'-F G except 2'-OMe G at 20, 2'-OMe A,C,U, SP3 spacer at 9 between parts",> 100
AGGCCGCCUCCGAGCGGAGGGGUUUCAUUAUCCCGUUUGGCGGCUU [Aptamer 152],binding result,[2]; [3],binds more weakly
GCCGACCCGCGCGGAGGGGUUUCAUUACCCCGUUUGUCGGC [Aptamer 213],binding signal (fold better than Aptamer 141),"[2]; 2'-F G except 2'-OMe G at 3,42,43 (Aptamer 141 numbering), 2'-OMe A,C,U, SP3 spacer between parts",2
CGACCCGCGCGGAGGGGUAUCAUUACCCCGUUUGUCG [Aptamer 290],binding result,[2]; [5],binds
GCCGACCCGCGCGGAGGGGUUUCAUUAUCCCGUUUGUCGGC [Aptamer 218],binding result,"[2]; 2'-F G except 2'-OMe G at 3,6,39,42,43 (Aptamer 141 numbering), 2'-OMe A,C,U, SP3 spacer between parts",binds
AGGCCGCCUCCGCGCGGAGGGGUUUCAUUAUCCCGUGUGGCGGCUU [Aptamer 170],binding result,[2]; [3],binds more weakly
